No constants are given. Whether binding was seen depends on the method and setting. Some entries that bind do so weakly or less than the wild type.
Target: DR_2577, the main S-layer protein of Deinococcus radiodurans (Deinococcus radiodurans (endogenous in strain R1, ATCC 13939)) (UniProt Q9RRB6)
Test: SDS-PAGE of unboiled samples; 7% polyacrylamide/urea gel, SDS and β-mercaptoethanol, samples not boiled; 10 µl protein at 0.2 mg/ml incubated 10 min at 25°C; neutral and subacid pH (7.0, 6.0), with or without EDTA, Cu2+, Ca2+; both purified

binding: binds
B1: DR_2577, the main S-layer protein of Deinococcus radiodurans (natural protein, UniProt Q9RRB6 23-1167, looked up)
chain: APVSAPQVPALTDVPAGHWAKDAIDRLVSRGVILGYPDGTFRGTQNLTRYEAAIIIARLLDQMRDGETPAGMTAEDMTALQNAIQELAADLAALGVRVSDLEANAVSKDDFARLEARIEEVAAAGGEQGATEALQGQIDDLTARVDEYDALRADVDDNASSIAALNDLTVLLNQDILDLQDRVSAVEAAQADFVQRSDFDALGGRVTTVETRVETVNNSLTGRIAALERNAFSVKPSLTIGYSVSRTSRNFDVDRLFPLNADGTVANNAFTSGGIDTDTGAQRRDFGDFGNASDPVVAGAAGLYGFADGVSYTVYFTDGSTATFDGLNPADYKVPTGKVIDTTKGRNGFGFNNLARYKEGSTDIGISLGFDTSGQFSQVTSGTGGSLFSTAGRLQVNQIDLNFGLVTGLPSDAYVDTNGNGKKDDGEATGRGTYLGSGGTAAILRDPAGNVYRPVFFRFKNATTQFSVGNNPVIVTLGQQQKFYFSDYVFDNNYDGRGDGFTVTVDGSNVPVIGAWKPQIKGVYGSRSGLDGTAEAGYGVYYRGVRAQITPVGTLTAGIHYAQEGRDMFGAAQNTTSTPSDVTTYGADLHGKAFGVELHSEYATSRVRPNTANAAVQTSNAFYARVATRKDNLAFDLNTPAAKFGNDTFGVSLYDLNYRKIDAGYNNVAGISEYGYGSYSRTSAQNIAYNPDTGVTAPFANLDRQAYTDANNDGTSDRNADGTVVATNTKIGQMGFGVKAAANLGPVAIGGYYDTSTGANGDNANRMTEAGGSAKVAYSIFSLRGTYNTLDSNRPQIYRDAAGTQIIGDAKVRRYAVQADVTPGLGLFVGAYYRDVNVNGVRSTTDRGLLGRGYLASSFEPGVGNNAYRTGLRCADNNFGTGTRDIDGVGGVLNPAVNLDQSRTATCFTSYGVEAGHAGDNANALVKDLFFRVGYSRVYVPTTATATTGDFSGSVTYGDARYDRKVGVANVRLAGSFSTTNTQLDSRPAGTRGAVGLIVRTDPLENVPFRPQFNGQVGYYTADNRVAAGNYNANATKYGAGVVLNDFLLPQTKIGVRYDGYMAQNRQYTPFDGDGTQGYFSDANNNRRTNLNGVYVEGAYQDLIFSYGTYTLSQKDLNGVEYGSGINNGQPARGQTFKISYKVNF
notes: DR_2577 (SlpA), main S-layer protein of Deinococcus radiodurans strain R1; The introduction describes it as a homo-hexamer of ~760 kDa (trimer of dimers); the dimers are said (cited work) to be held by intermolecular disulfide bonds; also called SlpA
